# Reference: article PMC7819943, “Rice protein-binding microarrays: a tool to detect cis-acting elements near promoter regions in rice”
# Chains of the proteins cited; added tags and fusions are not shown.
# UniProt Q0JBA9, entry or part of it: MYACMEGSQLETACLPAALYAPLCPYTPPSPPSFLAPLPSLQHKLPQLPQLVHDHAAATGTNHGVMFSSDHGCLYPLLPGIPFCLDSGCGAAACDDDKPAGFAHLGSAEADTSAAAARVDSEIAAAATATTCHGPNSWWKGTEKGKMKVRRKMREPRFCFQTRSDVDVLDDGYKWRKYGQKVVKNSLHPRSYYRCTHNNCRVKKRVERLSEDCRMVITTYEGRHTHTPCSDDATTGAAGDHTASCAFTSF
# The other results are listed elsewhere or left out.
# Biological target: OsWRKY34 (Oryza sativa, UniProt Q0JBA9 1-250)
# Assay: protein-binding microarray (RPBM); PBS, 2% BSA, 51.3 ng/ul salmon testes DNA, 50 uM zinc acetate, 200 nM TF, 25 C, 1 h; high values mean tight binding
# Details: protein: recombinant; tags: N-terminal polyhistidine and DsRed monomer fusion (pET32a); label: CyDye5-dUTP incorporated in the synthesized complementary strand; 3' TTTTT single-stranded linker to array surface; dsDNA, one strand shown
# Summary of the method: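 Binding signal here means per-feature fluorescence intensity in arbitrary units. The values were read on an Axon 4000B scanner after a custom Agilent array, double-stranded by primer extension with Cy5-dUTP, was incubated with 200 nM protein at 25 °C for 1 h in PBS with 2% BSA, salmon testes DNA and 50 µM zinc acetate, then washed. The proteins were transcription factors with an N-terminal polyhistidine tag and DsRed, expressed in E. coli BL21-CodonPlus and purified on Ni–NTA.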
row,Sequence,binding signal
1,ATATATATATATATATATATATGGAATACATCATATCCAACGGAGTCACCTAGTGCAG,13600 fluorescence intensity (a.u.)
2,AAGAGATTATCACTGTTGTTTTTTTCGTTTTCTTGCTTGCCGGAGTCACCTAGTGCAG,9190 fluorescence intensity (a.u.)
3,CCATGGAATTTCAATTGCGTTTGACCATATATTTTATTATCGGAGTCACCTAGTGCAG,9230 fluorescence intensity (a.u.)
4,TAATGGCTCACCTCGTTTTGCGTATCTTCCCAGTCTTCTCCGGAGTCACCTAGTGCAG,11600 fluorescence intensity (a.u.)
5,GCGATCCCACCGATTCTTGCACACACACTAGCTACTTCTACGGAGTCACCTAGTGCAG,9900 fluorescence intensity (a.u.)
6,TGTGGTGTGCTTGAGGTGCTTTTGAGTTTTAAATAGATTACGGAGTCACCTAGTGCAG,8520 fluorescence intensity (a.u.)
7,CAAAACCCAACTGGCCAATCCGCGTGTTGATTACATTTCCCGGAGTCACCTAGTGCAG,8180 fluorescence intensity (a.u.)
8,CACCTTTCAATTTTTTTCTTCATAATATTTTCCTCCTATCCGGAGTCACCTAGTGCAG,9490 fluorescence intensity (a.u.)
9,TTTTCGTCTATTTTATTACTGTTGCTTGCCTACAATTCTCCGGAGTCACCTAGTGCAG,13500 fluorescence intensity (a.u.)
10,TCCTCTCCTTTCCATTTTTTCCCCATCGCGCCCTACTTAACGGAGTCACCTAGTGCAG,11800 fluorescence intensity (a.u.)
11,AAAGTTGGGCTTCTTCGGTTCTTCCCATATATGACAGATACGGAGTCACCTAGTGCAG,8220 fluorescence intensity (a.u.)
12,CCGAACCTGTATAAAATTTTTGTCTCCATCTTCTTTTACTCGGAGTCACCTAGTGCAG,8320 fluorescence intensity (a.u.)
13,CCACCCCTACCACCGCACAATCTCATCACTCTTCACCCGCCGGAGTCACCTAGTGCAG,8080 fluorescence intensity (a.u.)
14,GAGTTGGTGTGGGTGGGATTGGCATTGTATCGTGAGAGAGCGGAGTCACCTAGTGCAG,15200 fluorescence intensity (a.u.)
15,TCACCGCTCCGTTCCGTTCCGTTCCATTTCCGCCTTGCTCCGGAGTCACCTAGTGCAG,9230 fluorescence intensity (a.u.)
16,TCAAAATCAGTCACAATAAATTCGGTTTTGATCCCGGTTTCGGAGTCACCTAGTGCAG,9770 fluorescence intensity (a.u.)
17,CTCGGCCATTCACACCTCCTGCCGGTCTCCTCCGAACCCTCGGAGTCACCTAGTGCAG,8790 fluorescence intensity (a.u.)
18,CAACGGCCGCAACAGCCTCCTTTCCTGTCGAATCTCGCAACGGAGTCACCTAGTGCAG,8440 fluorescence intensity (a.u.)
19,CCTCTTTGTGCTCATCTAGTCATCTCTCGTTCTCTTTTTTCGGAGTCACCTAGTGCAG,9970 fluorescence intensity (a.u.)
20,CGTCTTCATCCGCCGCTTCAAAAACCAGAGATAAACCTCGCGGAGTCACCTAGTGCAG,8810 fluorescence intensity (a.u.)
21,TAAATATTTCTCAACTTTTTCTCAATTTTCTCGTCTTTTCCGGAGTCACCTAGTGCAG,9620 fluorescence intensity (a.u.)

row,Sequence,binding signal
1,GATTTGGGTTGAAATATGATATGGGTTGGATTGGTTTGGACGGAGTCACCTAGTGCAG,16100 fluorescence intensity (a.u.)
2,CAATTGCCTTTTTTTTTTGTCTCCGGCCCATGTGAGAACACGGAGTCACCTAGTGCAG,8580 fluorescence intensity (a.u.)
3,CGAGGATATCGTATATATGGATCTCCTGCAGCCCAATCTCCGGAGTCACCTAGTGCAG,8930 fluorescence intensity (a.u.)
4,ATATCATTCTTTGAGGGCTTCTTTGGTTGTATGCCACACACGGAGTCACCTAGTGCAG,9660 fluorescence intensity (a.u.)
5,TTCTTTGTGTCTATCTCTCTCATCTAATTTCTACGTATTTCGGAGTCACCTAGTGCAG,10900 fluorescence intensity (a.u.)
6,AAAAAATAGCCACACCACGCATCAACGTCTAATCCTGCTACGGAGTCACCTAGTGCAG,8560 fluorescence intensity (a.u.)
7,GGCCTCCTTCATCACGCCCTGGATCTCACTGACTAAAAACCGGAGTCACCTAGTGCAG,8030 fluorescence intensity (a.u.)
8,CACGGATCGCTGCCCCACTCCCAACCCATCTCCACCGTCCCGGAGTCACCTAGTGCAG,8390 fluorescence intensity (a.u.)
9,GTAGTATTGTACTAATCTCTCACACTATTACAGGCTTACACGGAGTCACCTAGTGCAG,8810 fluorescence intensity (a.u.)
10,GGCGAGGGGAGAAGAGAAGAGGTGGGTGAGGTGGGGTTTCCGGAGTCACCTAGTGCAG,12800 fluorescence intensity (a.u.)
11,TCCTGCCACTTCACCACCGCACAGCGAGCTCGCCGCGGAGCGGAGTCACCTAGTGCAG,8060 fluorescence intensity (a.u.)
12,GCTGTCGTTGAATTTTTGTTTGTTTTCTTGGCGTGTTGCACGGAGTCACCTAGTGCAG,13300 fluorescence intensity (a.u.)
13,ACCCCTTTTCCCACTAGTACTTGCCGTGCCTTCCTCTCTCCGGAGTCACCTAGTGCAG,10100 fluorescence intensity (a.u.)
14,GACACCATACTGATTAGTCTTTTCATGCATTGCAGTATTTCGGAGTCACCTAGTGCAG,9360 fluorescence intensity (a.u.)
15,TCGACCTGTCCACTATGCTTTTTTCTTTGTCTCTGTCCGCCGGAGTCACCTAGTGCAG,9630 fluorescence intensity (a.u.)
16,ACCCGCCGCTGCCTGCTTCCCTGCTCGCGCCGCGCCGCGCCGGAGTCACCTAGTGCAG,11100 fluorescence intensity (a.u.)
17,TCCCCTTGCAGCGAGCTCAATCGATCTCTTTACATCTCGTCGGAGTCACCTAGTGCAG,10200 fluorescence intensity (a.u.)
18,TTTCCGCGCGTATGTTTTCCAAACTACTAAACGTTGTATTCGGAGTCACCTAGTGCAG,8060 fluorescence intensity (a.u.)
19,ATCGTCGTCGTCATCGGTATCCTTCATTCTGACATGCATTCGGAGTCACCTAGTGCAG,8620 fluorescence intensity (a.u.)
20,ATATCTGTTACTTTTTGTCTGGATGGAATTCTTATTCTTACGGAGTCACCTAGTGCAG,9070 fluorescence intensity (a.u.)
21,GGGGTGGTTTTGGCTGAGCTGCTTGTGTCCTCTTCTTGCTCGGAGTCACCTAGTGCAG,18400 fluorescence intensity (a.u.)

# A run of entries from further up, as a working copy:
row,Sequence,binding signal
1,GATTTGGGTTGAAATATGATATGGGTTGGATTGGTTTGGACGGAGTCACCTAGTGCAG,16100 fluorescence intensity (a.u.)
2,CAATTGCCTTTTTTTTTTGTCTCCGGCCCATGTGAGAACACGGAGTCACCTAGTGCAG,8580 fluorescence intensity (a.u.)
3,CGAGGATATCGTATATATGGATCTCCTGCAGCCCAATCTCCGGAGTCACCTAGTGCAG,8930 fluorescence intensity (a.u.)

# Rewritten with tabs: entries from further up.
row	Sequence	binding signal
15	TCGACCTGTCCACTATGCTTTTTTCTTTGTCTCTGTCCGCCGGAGTCACCTAGTGCAG	9630 fluorescence intensity (a.u.)
16	ACCCGCCGCTGCCTGCTTCCCTGCTCGCGCCGCGCCGCGCCGGAGTCACCTAGTGCAG	11100 fluorescence intensity (a.u.)

# More results

row,Sequence,binding signal
1,ATGTTTGACGCCGTTGATATTTTAGCACATGTTTGACTGTCGGAGTCACCTAGTGCAG,11400 fluorescence intensity (a.u.)
2,GTTGCAGATCATTGTTCTCTCTTTGTTGCACTTTTTCGTACGGAGTCACCTAGTGCAG,8780 fluorescence intensity (a.u.)
3,TCCAATTTGCTTTCGTCCCGCTTTGAACCTAAAATTTTTTCGGAGTCACCTAGTGCAG,9710 fluorescence intensity (a.u.)
4,TCCGTGTCCAATGTTTGACCATCCGTCTTATTTAAAAAAACGGAGTCACCTAGTGCAG,8070 fluorescence intensity (a.u.)
5,GATGGATTTCACGGCCTTACATGCGTCCGCGTCGCCTCTGCGGAGTCACCTAGTGCAG,8320 fluorescence intensity (a.u.)
6,TCAGTTACCTTGGCTTCAAGCCTCCATATCGCGGTAAAAGCGGAGTCACCTAGTGCAG,10500 fluorescence intensity (a.u.)
7,GAGGTGGGTGGGAGGGAGGGACGCGTAGCGGAGGTCGGAGCGGAGTCACCTAGTGCAG,14700 fluorescence intensity (a.u.)
8,TGTGTTCCCTTTCGGTACGTTGTATTTCGACCCTGACGTTCGGAGTCACCTAGTGCAG,8710 fluorescence intensity (a.u.)
9,CGCTTTTTGTCCAGTTAATTGCCCGTTATAAGCTCGGATTCGGAGTCACCTAGTGCAG,8350 fluorescence intensity (a.u.)
10,CACTGCTTTTTGCTATACCTTGTACAAGGGTGTTTAGATTCGGAGTCACCTAGTGCAG,9530 fluorescence intensity (a.u.)
11,GCAGGTTGATGCATAGCTCGCGCGCACGCGCCTGTGTCCACGGAGTCACCTAGTGCAG,9800 fluorescence intensity (a.u.)
12,ACGCCCGCTCTACTGTCGAAGTATATAAAGTTCATTTCTCCGGAGTCACCTAGTGCAG,8100 fluorescence intensity (a.u.)
13,GGCATATTTTCTAGTAAATCAAAATAACTGTTAGGGAGGGCGGAGTCACCTAGTGCAG,9760 fluorescence intensity (a.u.)
14,CTCCTCTACTACCACCGCCGCTCTCGTCTCGTCTCGTCTCCGGAGTCACCTAGTGCAG,11800 fluorescence intensity (a.u.)
15,TTTCCGGTTTTCCAATATTTCCGATACCATTTTCATTTCCCGGAGTCACCTAGTGCAG,12800 fluorescence intensity (a.u.)
16,TTACCATGGTGCATTTACGGCTGTGATCGCTTTGTTGTACCGGAGTCACCTAGTGCAG,9370 fluorescence intensity (a.u.)
17,TGCCTTGATCTCCCACCACTGCCTCAATTTTCACCTACTCCGGAGTCACCTAGTGCAG,8120 fluorescence intensity (a.u.)
18,AATCCTATTTTTTTCTATTCGTACTATTCAAAGGTGCTCTCGGAGTCACCTAGTGCAG,9740 fluorescence intensity (a.u.)
19,CTAGCAATCCTACCGGTGAAATCATCCCATCCCATCTCATCGGAGTCACCTAGTGCAG,8390 fluorescence intensity (a.u.)
20,GCCCATTATAAAAGTATTGTATGCGCACGATCGTCCTCTCCGGAGTCACCTAGTGCAG,9100 fluorescence intensity (a.u.)
21,ATGGCAAGTCTAGCTGTCCTTTTTTTTTTTTTTACAATTCCGGAGTCACCTAGTGCAG,8770 fluorescence intensity (a.u.)

row,Sequence,binding signal
1,TATCCTTCTACCCATTAGGACAACACAATGACCATTAACACGGAGTCACCTAGTGCAG,8620 fluorescence intensity (a.u.)
2,GGGTTGACCATAACCTAAGCTGGTCAAAACTGTTCTTCTGCGGAGTCACCTAGTGCAG,11200 fluorescence intensity (a.u.)
3,CCCATGCCGCCGCCGTCGCCGTGATACGTGGGAGCGGCACCGGAGTCACCTAGTGCAG,8090 fluorescence intensity (a.u.)
4,ATTTTTGTCACCGTCGTTATTGTGGAGAGCTTTTTATGTTCGGAGTCACCTAGTGCAG,12300 fluorescence intensity (a.u.)
5,TCAGTGTTACTACTACTTTCCCACCTTGCCCTCACTACCTCGGAGTCACCTAGTGCAG,9200 fluorescence intensity (a.u.)
6,GGCGGTTTGGTTTGTTCTCTCTCGGTCGTCGTCGGCGGCACGGAGTCACCTAGTGCAG,10400 fluorescence intensity (a.u.)
7,TAATCGGTCATCTACTTCAACATCTACTCGTAAATCCTCTCGGAGTCACCTAGTGCAG,9650 fluorescence intensity (a.u.)
8,TTTGTCTATCGTTTCCTAACCTTATCAACTCCGGCCCTTGCGGAGTCACCTAGTGCAG,9070 fluorescence intensity (a.u.)
9,TTTTTCCGGTGACTTTCTCAGTGGTCAAGAGCTTTGTTTTCGGAGTCACCTAGTGCAG,11500 fluorescence intensity (a.u.)
10,TGGGTCCCACTACTTTTTTCTTTTGCCTTACTGACATATGCGGAGTCACCTAGTGCAG,8150 fluorescence intensity (a.u.)
11,CCCAAATTTCGGGTTCTTGATCTACATGTAGCTACCAATTCGGAGTCACCTAGTGCAG,8900 fluorescence intensity (a.u.)
12,TGGTCTTCTAAGTTTCATTCTGCATGGTTATATGGATTTTCGGAGTCACCTAGTGCAG,11300 fluorescence intensity (a.u.)
13,GAGCTGATCTTGTTGACTTATTGAACGAAACTCTACACAGCGGAGTCACCTAGTGCAG,10100 fluorescence intensity (a.u.)
14,ATGTATGTATGTATAGGTTATTCAGTCTCTTTCTTTGCAACGGAGTCACCTAGTGCAG,8630 fluorescence intensity (a.u.)
15,ATGTTCATATGAGGATCCACACGTCAATCCACGTCTCTTCCGGAGTCACCTAGTGCAG,8120 fluorescence intensity (a.u.)
16,TGGTTCTCGCTTTTCGCCGCTTCCTATCCGAAGTGCTTTTCGGAGTCACCTAGTGCAG,9080 fluorescence intensity (a.u.)
17,CTGCACCTAAAGCCTTTCAGAAAACTTTTCACCCTGTCAACGGAGTCACCTAGTGCAG,8740 fluorescence intensity (a.u.)
18,TACACTCACTACCAATCCACTACTCTCTTTCTCTTATTTCCGGAGTCACCTAGTGCAG,8770 fluorescence intensity (a.u.)
19,TGGTGGTGCTAATGTGCTTTTTTGTGGGTGGCTGCATTACCGGAGTCACCTAGTGCAG,8190 fluorescence intensity (a.u.)
20,GTAGCATTCGTTTTTTTTTTTCTTTTGTTCTTTCAAAAATCGGAGTCACCTAGTGCAG,10400 fluorescence intensity (a.u.)
21,TCCGTACCGTTTTCACCCCTACCTGTTAGATGTTGCATAACGGAGTCACCTAGTGCAG,10500 fluorescence intensity (a.u.)
